The other results are listed elsewhere or left out. Values are raw readings; no control value is given beside them.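 In the initial screen, polymyxin B was used at a concentration that permeabilizes Salmonella's outer membrane but not its inner membrane. Maximum growth was set by DMSO wells with or without polymyxin B. Since plates varied, data were ranked per plate, and compounds giving the lowest OD600 advanced as hits.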
System: Salmonella enterica serovar Typhimurium SL1344
Test: bacterial growth OD600 after 18 h with compound and polymyxin B; higher = more bacterial growth (less inhibition)
Conditions: 50 µM, Mueller-Hinton broth

Row | SMILES | bacterial growth OD600 (polymyxin B 0.75 µg/mL) | bacterial growth OD600 (polymyxin B 1 µg/mL)
1 | COC(=O)CCC(=O)N1CCC(C2CCN(CCc3ccccc3)C2)CC1 (configuration not stated) | 0.733 | –
2 | O=C1N(Cc2cccc(F)c2F)CCCC1(O)CNC1CCCCC1 (configuration not stated) | – | 0.992
3 | CCCNC(=O)N1CCCC(N2CCN(Cc3ccc4c(c3)OCO4)CC2)C1 (configuration not stated) | – | 0.872
4 | COCCN(CC1CCCN(C2Cc3ccccc3C2)C1)C(=O)CN1CCCCC1 (configuration not stated) | – | 0.79
5 | Cc1ccc(C)c(OCc2cc(C(=O)NCc3n[nH]c4c3CCC4)no2)c1 | – | 0.002
6 | CN(Cc1nc2cc(Cl)ccc2[nH]1)Cc1nc(-c2ccc3c(c2)OCO3)no1 | – | 0.761
7 | CC1=C(C(=O)N2CCc3onc(-c4ccc5c(c4)OCO5)c3C2)OCCO1 | 0.654 | –
8 | O=C(CCc1cnccn1)N1CCCC(CCc2ccc(F)c(F)c2)C1 (configuration not stated) | 0.743 | –
9 | CN(Cc1nccs1)c1nc2nonc2nc1N1CCCCC1 | 0.864 | –
10 | COCC1CCCCN1C(=O)c1csc2nc(-c3ccc(Cl)cc3)cn12 (configuration not stated) | 0.511 | –
11 | CC(C)C(CO)Nc1ccc(-c2nc(Cc3ccccc3)no2)cn1 (configuration not stated) | – | 0.587
12 | COCC1CCCN(C(=O)c2cc(Cn3cnc4cc(C)c(C)cc43)[nH]n2)C1 (configuration not stated) | – | 0.933
13 | C=CC[C@@H]1CC=C[C@@H](C)N1C(=O)CC1(c2ccccc2)CC(=O)N(CCCOc2cccnc2)C1=O (some centres not stated) | 0 | –
14 | FC(F)(F)c1cccc(N2CCN(C3CCCN(Cc4ccco4)C3)CC2)c1 (configuration not stated) | – | 0.787
15 | Cc1ccc2c(c1)CN(CC1CC1)CC(c1ccsc1)O2 (configuration not stated) | 0.739 | –
16 | CN(C)CCC1CN(c2ccc3ccccc3n2)CCO1 (configuration not stated) | – | 0.979

Single entries from above.
bacterial growth OD600 (polymyxin B 0.75 µg/mL) with `CC1=C(C(=O)N2CCc3onc(-c4ccc5c(c4)OCO5)c3C2)OCCO1` is entered as 0.654
bacterial growth OD600 (polymyxin B 0.75 µg/mL) with `CN(Cc1nccs1)c1nc2nonc2nc1N1CCCCC1` is entered as 0.864

Going on with the list.

Row | SMILES | bacterial growth OD600 (polymyxin B 0.75 µg/mL) | bacterial growth OD600 (polymyxin B 1 µg/mL)
17 | CC[C@H](C)[C@H](NC(=O)C1CC(Cc2ccc(F)cc2)=NO1)C(=O)OC (some centres not stated) | 0.788 | –
18 | O=C(NCCC1=CCCCC1)C1CC12CCN(C(=O)c1cn3ccccc3n1)CC2 (configuration not stated) | 0.98 | –
19 | COCCC(=O)N1CCCC1C(=O)Nc1ccc(-c2cc3ccccc3[nH]2)cc1 (configuration not stated) | 0.722 | –
20 | CN(C(=O)c1ccn(C)n1)C(Cc1ccccc1)C1CCN(Cc2ccc(N3CCCC3)cc2)CC1 (configuration not stated) | 0.794 | –
21 | Cc1cnccc1CNC(=O)CC(c1cccc(O)c1)c1cccc(Cl)c1 (configuration not stated) | – | 0.723
22 | CN(C)C(=O)c1ccc(N2CCC(NCCc3ccccc3C(F)(F)F)CC2)cc1 | 0.823 | –
23 | C=C(C)CN(C)C(=O)Cc1c2c(n(Cc3ccccc3)c1C)CCCC2=O | – | 1.11
24 | COC(=O)CNC(=O)c1coc(COc2cccc(F)c2F)n1 | 0.864 | –
25 | CCn1cc(C(=O)NC2CCCN(CC3CCCCC3)C2)cn1 (configuration not stated) | – | 0.994
26 | COc1cc(CN2CCN(Cc3ccccc3C)CC2CCO)cc(OC)c1 (configuration not stated) | – | 0.872
27 | Cc1ccc(OCc2cc(C(=O)N3CCC(Cc4ccccc4F)CC3)no2)cn1 | – | 0.686
28 | CCOC(=O)C1(CCOc2ccccc2)CCN(C(=O)c2ccc3c(c2)OCCO3)CC1 | – | 0.518
29 | O=C(NCc1ccccn1)C1CCN(C2CCN(Cc3ccccc3)CC2)CC1 | – | 0.91
30 | COc1ccccc1-n1cc(CN2CCCC(CNC(=O)c3cc(C)on3)C2)cn1 (configuration not stated) | – | 0.905
31 | O=C1N(Cc2cccc(F)c2F)CCCC1(O)CNC1CCCCCC1 (configuration not stated) | – | 0.942
32 | CCC1CN(Cc2cc3ccccc3[nH]2)Cc2cc(OC)ccc2O1 (configuration not stated) | 0.007 | –
